Source: PMC2789240, “Comparative structural, kinetic and inhibitor studies of Trypanosoma brucei trypanothione reductase with T. cruzi^” (Molecular and Biochemical Parasitology, 2010)
Where two headings read alike, the source gives them in different places.

By UniProt entry, the sequences of proteins in these tests, tags left out. Where a name states a change or a piece, a line headed by the entry shows the natural chain unless it says otherwise.
UniProt P28593: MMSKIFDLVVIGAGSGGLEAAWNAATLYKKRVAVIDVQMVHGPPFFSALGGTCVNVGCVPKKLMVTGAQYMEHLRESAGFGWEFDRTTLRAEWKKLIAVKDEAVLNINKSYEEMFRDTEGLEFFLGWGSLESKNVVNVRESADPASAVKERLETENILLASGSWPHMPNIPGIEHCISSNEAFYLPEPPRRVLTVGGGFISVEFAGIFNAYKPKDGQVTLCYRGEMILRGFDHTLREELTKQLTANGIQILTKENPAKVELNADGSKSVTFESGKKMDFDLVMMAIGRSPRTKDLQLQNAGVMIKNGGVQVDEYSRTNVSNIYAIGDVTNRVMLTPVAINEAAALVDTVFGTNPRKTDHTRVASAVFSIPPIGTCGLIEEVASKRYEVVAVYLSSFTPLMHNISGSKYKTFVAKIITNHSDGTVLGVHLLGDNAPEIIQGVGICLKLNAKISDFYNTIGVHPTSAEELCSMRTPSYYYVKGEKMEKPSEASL
UniProt Q389T8, entry or part of it: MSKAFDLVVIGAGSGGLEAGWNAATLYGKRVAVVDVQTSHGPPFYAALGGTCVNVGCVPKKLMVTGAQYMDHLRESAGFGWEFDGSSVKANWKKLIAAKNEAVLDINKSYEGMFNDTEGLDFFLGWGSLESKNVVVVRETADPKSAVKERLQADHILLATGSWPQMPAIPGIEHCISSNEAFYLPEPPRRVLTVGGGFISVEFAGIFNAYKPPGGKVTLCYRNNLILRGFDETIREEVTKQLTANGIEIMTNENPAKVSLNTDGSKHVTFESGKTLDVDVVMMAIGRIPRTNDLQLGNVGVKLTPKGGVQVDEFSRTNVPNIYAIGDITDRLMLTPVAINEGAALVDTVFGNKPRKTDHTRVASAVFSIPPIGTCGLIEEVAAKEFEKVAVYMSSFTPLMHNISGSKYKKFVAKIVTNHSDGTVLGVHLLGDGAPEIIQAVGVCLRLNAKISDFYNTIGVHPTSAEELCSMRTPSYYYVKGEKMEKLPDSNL

Key:
[1] = biological target: T1, TcTryR (recombinant T. cruzi trypanothione reductase) (Trypanosoma cruzi, UniProt P28593); experiment: 412 nm DTNB-coupled trypanothione reductase assay (IC50, Km); format: biochemical; details: 412 nm assay, T(S)2 at S = Km (10.4 μM), weighted mean of three occasions
T1 construct: made in house
Method: Assay plates were prepared using a Precision2000 liquid handler (Bio-Tek) with a final DMSO concentration of 1% in all wells. Plates contained a 10-point serial dilution (2-fold or 3-fold dilutions) across columns 2–11 with a top concentration of 100 μM or 200 μM. […] Column 1 contained full signal controls (no inhibitor) and column 12 contained background controls (no enzyme). […] Z′ figures were calculated from the full signal and background controls.

[2] = biological target: TbTryR (recombinant T. b. brucei trypanothione reductase) (Trypanosoma brucei brucei, UniProt Q389T8); experiment: biochemical
[3] = system: Bloodstream form T. b. brucei cells (strain 427, 'single marker'); details: ref Richardson et al. [33]; cited from earlier work
[4] = system: Bloodstream form T. b. brucei cells (strain 427, 'single marker'); experiment: Growth inhibition of bloodstream form T. b. brucei (resazurin); format: cell-based; details: Trypanosoma brucei, 72 h, 3 days incubation, weighted mean of three experiments
Method: Bloodstream form T. b. brucei cells (strain 427, ‘single marker’) were grown at 37 °C and 5% CO2 in a modified HMI9 [21] (HMI9-T where 0.2 mM 2-mercaptoethanol was replaced with 0.056 mM thioglycerol). Stock cultures were maintained in T75 vented cap culture flasks (Greiner, Kremsmuenster, Austria) and sub-cultured every 48–72 h by dilution into fresh medium. For microtitre plate assays, cells were counted using a Casy cell counter TT (Schärfe systems) and diluted appropriately. Compounds were tested in 96-well test plates (Greiner). The final conditions were 50–0.07 μM test compound (9-point 3-fold serial dilutions), 0.5% DMSO, 10^3 ml^−1 cells in a total volume of 0.2 ml. Plates were incubated for 3 days, resazurin was added to a final concentration of 45 μM and plates incubated for a further 4 h. Fluorescence was measured at 528 nm excitation and 590 nm emission. EC50 values were determined in three separate experiments and the data reported as weighted means.

Compound | IC50 [1] [µM] | IC50 [2] [µM] | Ki ([2]; Ki) [µM] | Ki ([2]; calculated Ki from IC50 determination) [µM] | EC50 [3] [µM] | EC50 [4] [µM]
CN(C)CCCN1c2ccccc2CCc2ccc(Cl)cc21 [Clomipramine] | 3.41 ± 0.06 | 11.1 ± 0.42 | 3.03 ± 0.28 | 5.5 | 5.04 | 
CSc1ccc2c(c1)N(CCC1CCCCN1C)c1ccccc1S2 (stereo not shown) [Thioridazine] |  | 9.58 ± 0.38 |  |  |  | 1.39 ± 0.03
